{"source": "patent US20260069693A1", "about": "“UROLITHINS AND T-CELL MEDIATED IMMUNE RESPONSE” (priority 2022, published 2026)", "test_system": "T cells", "assay": "qPCR and RNA sequencing of stimulated T cells", "type": "cell-based, mice", "details": "RNA sequencing, 48 hours DMSO or UA (50 μM)", "description": "To explore the downstream events linking mitophagy to TSCM formation, the inventors performed RNA sequencing to globally assess differential gene expression in T cells exposed for 48 hours to either DMSO or UA in vitro. […] Indeed, when the inventors applied ICG001 to pharmacologically block TCF-1, UA-induced TSCM formation in vitro was abrogated (FIG. 5D-E).\nIn vitro activated T cells following the indicated treatments were collected followed by RNA isolation using the RNeasy kit (Qiagen). RNA quality and concentration were determined by Nanodrop spectrophotometer. Complementary DNA was generated using SuperScript II reverse transcriptase (ThermoFisher). A total reaction volume of 13 μl RNA was incubated with oligoDT and DNTP Mix (1 μl each) for 5 min at 65° C. The samples were allowed to cool down for 5 min on ice, and to each 4 μl of 5× First strand buffer, 1 μl DTT, 1 μl RNAseOUT™ and 1 μl Superscript II reverse transcriptase were added. Samples were incubated for 1 h at 42° C. Synthesized cDNA was 1:5 diluted in nuclease free water before being processed into gene expression analysis with the 96 wells StepOne real time PCR Machine (Applied biosystems) using 2× FastStart Universal SYBR Green Master Mix (Roche). CT values were normalized to the gene indicated in the respective figures. The following primers were used: […]\nFor RNA isolation of in vitro stimulated T cells, RNeasy mini kit (Qiagen) was used. 200 ng of total RNA was used to prepare the library for RNA sequencing. Coexpression patterns of genes associated with effector and memory cell fate, immune checkpoints, effector molecules, and adhesion/homing were chosen based on the literature as depicted in the main text. Data underwent z-score normalization for display as described previously (Xiong et al., 2020). Upstream regulator analysis was performed using Ingenuity pathway analysis software, using a cut-off log 2fold change of 1 and a p value of […]."}
{"smiles": "O=c1oc2cc(O)ccc2c2ccc(O)cc12", "note": "[UA, Urolithin A]", "values": [{"measurement": "differentially expressed genes downregulated", "result": 413}, {"measurement": "differentially expressed genes significantly upregulated", "result": 765}, {"measurement": "total number of differentially expressed genes", "result": 1178}]}
